# Reference: PubChem BioAssay AID652243 (Drosophila RNAi Screening Center, 2013)
# Screen: 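Fly genes required for human androgen receptor driven transcription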 (primary screen)
# Cells: Drosophila S2R+ cells
# Knock-down reagent: long dsRNA against Drosophila genes
# Duration: 72 h (48 h, then 24 h hormone)
# Treatment: synthetic androgen R1881 at 10 nM for 24 h
# Measured: 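Firefly light from an androgen-responsive reporter and Renilla control light per well, raw and unnormalised, for each of two replicates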
# Direction: firefly reporter light: higher = more light from androgen-responsive reporter; Renilla control light: higher = more constitutive control signal (cell number, transfection)
# Hit rule: 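Hit when the log firefly-to-Renilla ratio dropped or increased by a fixed fold versus the mean of GFP or LacZ controls across duplicate plates; lowering cut given as 1.5 and as 3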
# Calls: active = hit: reporter lowered or raised; inactive = no hit
# In all, the deposit lists about 24,000 reagents; this is a random part of those with a known target gene and a result. In the full data, 246 (1%) are marked active. 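Plates not normalised; calls are printed but the firefly/Renilla ratio behind them is not deposited; fold cut for lowering reported inconsistently.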 The raw values are shown without normalisation. A number with no mark means an inactive call. Reagents against one gene are numbered here. Not given: the amount of reagent.
Target gene,reagent,"firefly reporter light, replicate 1","firefly reporter light, replicate 2","Renilla control light, replicate 1","Renilla control light, replicate 2"
PGRP-SB2,1,1.68e5,1.58e5,1.47e6,1.28e6
CalpB,1,5.54e5,5.98e5,5.40e5,6.39e5
CalpB,2,2.99e5,3.11e5,8.78e5,7.43e5
alphaTub85E,1,1.78e5,2.45e5,3.27e6,3.25e6
alphaTub85E,2,2.56e5,4.39e5,5.32e5,5.90e5
glo,1,84210,98343,2.18e6,2.13e6
glo,2,2.25e5,1.75e5,6.21e5,8.36e5
Atg17,1,9996,22756,3.67e5,2.97e5
pins,1,1.44e5,1.34e5,1.78e6,2.72e6
Evi5,1,2.26e5,3.45e5,3.04e6,2.90e6
Evi5,2,1.64e5,1.76e5,5.27e5,3.59e5
CG13995,1,2.75e5,2.55e5,2.02e6,2.24e6
CG13995,2,3.85e5,3.39e5,3.31e6,2.27e6
CG13995,3,8.02e5,1.20e6,1.60e6,1.89e6
CG13995,4,7.09e5,8.10e5,1.70e6,1.53e6
Usp10,1,4.49e5,3.85e5,8.80e5,8.13e5
Usp10,2,36025,49951,5.67e5,5.71e5
CG31817,1,1.60e5,1.38e5,4.59e5,5.43e5
CG31817,2,3.25e5,4.04e5,2.53e6,3.08e6
CG31817,3,4.18e5,9.28e5,5.99e5,8.48e5
CG12716,1,6.81e5,5.06e5,3.35e6,3.10e6
CG12716,2,1.07e6,8.87e5,1.64e6,1.39e6
CG8097,1,3.61e5,3.71e5,3.66e6,3.72e6
CG30334,1,1.30e5,91089,2.40e5,3.10e5
CG30334,2,8.25e5,1.05e6,5.97e5,7.12e5
